# Test results: PubChem BioAssay AID212 (DTP/NCI, 2004)
# The list shows only some results of the screen, not a fair sample: it gathers tests that were run many times, whatever their T/C, doses with no T/C, and many T/C values between a quarter and a half above the control. Further doses and runs are listed elsewhere. T/C is the treated group as % of the vehicle group. Schedule codes are those of the source, taken here to give the interval after Q, in days (D) or hours (H), and the number of doses after X. Some T/C values carry the count of animals alive at the toxicity check (mostly the fifth day); where none is given, no animal had died by that day. Some entries were tested several times; their values stand side by side, smallest first. Counts like (3×) give the number of equal values in this list. Some entries give survivors of the animals treated and no T/C: the source files T/C as zero there, which appears to mark a toxic dose or a test without result, not a measured value. Counts of survivors are from the toxicity check (mostly the fifth day) where no day follows; animals may have died later.
# Test system: BDF1 mice, colon carcinoma 38 sc, T/C %
# Assay: NCI In Vivo Anticancer Drug Screen. Data for tumor model Colon Carcinoma 38 (subcutaneous) in B6D2F1 (BDF1) mice
# Conditions: T/C endpoint: median tumor weight (est.), higher T/C = larger tumour; for T/C: evaluated on day 20
# Outline: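 Transplantable tumor in mice; compound-treated vs vehicle-dosed controls. Measured survival or tumor size; value = T ÷ C.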
# [1] = dose: 5.0 mg/kg/injection, schedule: Q07DX002 (ip), vehicle: saline with Tween-80
# [2] = dose: 10.0 mg/kg/injection, schedule: Q07DX002 (ip), vehicle: saline with Tween-80
# [3] = dose: 20.0 mg/kg/injection, schedule: Q07DX002 (ip), vehicle: saline with Tween-80
# [4] = dose: 40.0 mg/kg/injection, schedule: Q07DX002 (ip), vehicle: saline with Tween-80
# [5] = dose: 80.0 mg/kg/injection, schedule: Q07DX002 (ip), vehicle: saline with Tween-80
# [6] = dose: 160.0 mg/kg/injection, schedule: Q07DX002 (ip), vehicle: saline with Tween-80
# [7] = dose: 50.0 mg/kg/injection, schedule: Q07DX002 (ip), vehicle: Klucel (hydroxypropylcellulose) (HPC)
# [8] = dose: 100.0 mg/kg/injection, schedule: Q07DX002 (ip), vehicle: Klucel (hydroxypropylcellulose) (HPC)
# [9] = dose: 200.0 mg/kg/injection, schedule: Q07DX002 (ip), vehicle: Klucel (hydroxypropylcellulose) (HPC)
# [10] = dose: 400.0 mg/kg/injection, schedule: Q07DX002 (ip), vehicle: Klucel (hydroxypropylcellulose) (HPC)
smiles,measurement,setting,value
Nc1nc(=S)c2ncn(C3CC(O)C(CO)O3)c2[nH]1 (stereo not drawn),T/C,[1],"30, 61 [9 of 10 alive on day 20], 78, 107, 116, 124, 125 % of control"
same,survivor count,[1],6 of 10 on day 20
same,T/C,[2],"32, 40, 42, 44, 58, 89 [9 of 10 alive on day 20], 93 % of control [9 of 10 alive on day 20]"
same,survivor count,[2],6 of 10 on day 20
same,T/C,[3],"2, 35, 43, 46, 57, 57 [9 of 10 alive on day 20], 75 % of control"
same,survivor count,[3],5 of 10 on day 20
same,T/C,[4],"3, 13, 23, 34, 52, 62, 69 % of control"
same,survivor count,[4],3 of 10 on day 20
same,T/C,[5],"1 [9 of 10 alive on day 20], 2 [9 of 10 alive on day 20], 6, 11, 25, 26, 29 % of control [8 of 10 alive on day 20]"
same,survivor count,[5],2 of 10 on day 20
same,T/C,[6],"1 [9 of 10 alive on day 20], 2, 2 [8 of 10 alive on day 20] (2×), 7 [7 of 10 alive on day 20], 12 [8 of 10 alive on day 20], 17 % of control [8 of 10 alive on day 20]"
same,survivor count,[6],1 of 10 on day 20
same,survivor count,"dose: 160.0 mg/kg/injection, schedule: Q07DX003 (ip), vehicle: saline with Tween-80",3 of 10
N#C[Se-].c1ccc([Te+](c2ccccc2)c2ccccc2)cc1,survivor count,[7],3 of 10 on day 20
same,survivor count,[8],0 of 10 on day 20
CC1(C)CC2(C)OC2C2(C1)N=NC(=Nc1ccccc1)O2 (stereo not drawn),T/C,"dose: 400.0 mg/kg/injection, schedule: Q07DX002 (ip), vehicle: saline with Tween-80",127 % of control
same,survivor count,"dose: 800.0 mg/kg/injection, schedule: Q07DX002 (ip), vehicle: saline with Tween-80",4 of 10 on day 20
COC1C(O)C(C)OC(OC2C(Oc3cccc4c(O)c5c(=O)oc6ccc(C)c7c(=O)oc(c34)c5c67)OC(C)C(O)C2O)C1O (stereo not drawn),T/C,"dose: 25.0 mg/kg/injection, schedule: Q07DX002 (ip), vehicle: Klucel (hydroxypropylcellulose) (HPC)",132 % of control
same,T/C,"dose: 25.0 mg/kg/injection, schedule: Q07DX003 (ip), vehicle: Klucel (hydroxypropylcellulose) (HPC)",134 % of control
same,survivor count,[9],2 of 10
same,survivor count,"dose: 200.0 mg/kg/injection, schedule: Q07DX003 (ip), vehicle: Klucel (hydroxypropylcellulose) (HPC)",5 of 10
NC(=O)c1ccc[n+](Cc2c(Cl)cccc2Cl)c1,T/C,"dose: 6.25 mg/kg/injection, schedule: Q07DX002 (ip), vehicle: saline",134 % of control
O=c1[nH]c(=O)n(C2CC(O)C(CO)O2)cc1I (stereo not drawn),T/C,"dose: 100.0 mg/kg/injection, schedule: Q07DX002 (ip), vehicle: suspension in saline",132 % of control
same,survivor count,"dose: 1600.0 mg/kg/injection, schedule: Q07DX002 (ip), vehicle: suspension in saline",6 of 10 on day 20
C=Cc1cnc([N+](=O)[O-])n1C,T/C,[7],149 % of control
same,survivor count,[10],0 of 10 on day 20 and 1 of 10 on day 20
OC(CBr)C(O)C(O)C(O)CBr (stereo not drawn),T/C,"dose: 50.0 mg/kg/injection, schedule: Q07DX003 (ip), vehicle: saline with Tween-80",132 % of control
same,T/C,[8],"48, 51, 72, 79, 88, 91, 94, 98, 99, 117 % of control"
same,T/C,"dose: 100.0 mg/kg/injection, schedule: Q07DX003 (ip), vehicle: saline with Tween-80",133 % of control
same,T/C,[9],"25, 27, 39, 53, 59, 81 (2×), 84, 97 % of control (2×)"
same,T/C,[10],"4 [8 of 10 alive on day 20], 5, 18 [8 of 10 alive on day 20], 24, 32, 48, 51, 59, 75 % of control"
same,survivor count,[10],3 of 10 on day 20
same,survivor count,"dose: 800.0 mg/kg/injection, schedule: Q07DX002 (ip), vehicle: Klucel (hydroxypropylcellulose) (HPC)","0 of 10 on day 20, 1 of 10 on day 20, 2 of 10 on day 20, 3 of 10 on day 20, 5 of 10 on day 20, 6 of 10 on day 20"
CC1=C(/C=C/C(C)=C/C=C/C(C)=C/CO)C(C)(C)CCC1,T/C,"dose: 32.0 mg/kg/injection, schedule: Q07DX003 (ip), vehicle: saline with Tween-80",125 % of control
same,T/C,"dose: 256.0 mg/kg/injection, schedule: Q07DX003 (ip), vehicle: saline with Tween-80",128 % of control [9 of 10 alive]
OCCOCC(F)(F)F,T/C,"dose: 25.0 mg/kg/injection, schedule: Q07DX002 (ip), vehicle: saline with Tween-80",131 % of control
O=C1CN(CCN2CC(=O)N(CN3CCOCC3)C(=O)C2)CC(=O)N1CN1CCOCC1,T/C,"dose: 50.0 mg/kg/injection, schedule: Q07DX002 (ip), vehicle: water",137 % of control [9 of 10 alive on day 20]
same,survivor count,"dose: 200.0 mg/kg/injection, schedule: Q07DX002 (ip), vehicle: water",5 of 10 on day 20
same,survivor count,"dose: 400.0 mg/kg/injection, schedule: Q07DX002 (ip), vehicle: water",0 of 10 on day 20
same,survivor count,"dose: 800.0 mg/kg/injection, schedule: Q07DX002 (ip), vehicle: water",0 of 10 on day 20
C=C(C)[C@]12CC(C)C34OC(/C=C\C=C\CCCCCCCCC)(O[C@@H]1[C@@H]3[C@@H]1O[C@]1(CO)[C@@H](O)[C@]1(O)C(=O)C(C)=C[C@@H]41)O2 (stereo partly drawn),survivor count,"dose: 3.0 mg/kg/injection, schedule: Q07DX002 (ip), vehicle: distilled water + alcohol",6 of 10 on day 20
same,survivor count,"dose: 6.0 mg/kg/injection, schedule: Q07DX002 (ip), vehicle: distilled water + alcohol",1 of 10 on day 20
CN1CCN(c2ccc([N+](=O)[O-])c3no[n+]([O-])c23)CC1,T/C,[2],125 % of control
same,survivor count,[5],2 of 10 on day 20
same,survivor count,[6],0 of 10 on day 20
O=C(O)[C@H](Cc1ccccc1)N1C(=O)c2ccccc2C1=O,survivor count,"dose: 200.0 mg/kg/injection, schedule: Q07DX002 (ip), vehicle: DMSO",6 of 10 on day 20
same,survivor count,"dose: 400.0 mg/kg/injection, schedule: Q07DX002 (ip), vehicle: DMSO",0 of 10 on day 20
same,survivor count,"dose: 800.0 mg/kg/injection, schedule: Q07DX002 (ip), vehicle: DMSO",0 of 10 on day 20
